No constants are given. Whether binding was seen depends on the method and setting. For some of these results: In cells and extracts the contact can be indirect. Some entries that bind do so weakly or less than the wild type. Sequences can lack the tags named with a protein.
T1: recombinant his-tagged CTCF (human) (UniProt P49711)
T1 sequence: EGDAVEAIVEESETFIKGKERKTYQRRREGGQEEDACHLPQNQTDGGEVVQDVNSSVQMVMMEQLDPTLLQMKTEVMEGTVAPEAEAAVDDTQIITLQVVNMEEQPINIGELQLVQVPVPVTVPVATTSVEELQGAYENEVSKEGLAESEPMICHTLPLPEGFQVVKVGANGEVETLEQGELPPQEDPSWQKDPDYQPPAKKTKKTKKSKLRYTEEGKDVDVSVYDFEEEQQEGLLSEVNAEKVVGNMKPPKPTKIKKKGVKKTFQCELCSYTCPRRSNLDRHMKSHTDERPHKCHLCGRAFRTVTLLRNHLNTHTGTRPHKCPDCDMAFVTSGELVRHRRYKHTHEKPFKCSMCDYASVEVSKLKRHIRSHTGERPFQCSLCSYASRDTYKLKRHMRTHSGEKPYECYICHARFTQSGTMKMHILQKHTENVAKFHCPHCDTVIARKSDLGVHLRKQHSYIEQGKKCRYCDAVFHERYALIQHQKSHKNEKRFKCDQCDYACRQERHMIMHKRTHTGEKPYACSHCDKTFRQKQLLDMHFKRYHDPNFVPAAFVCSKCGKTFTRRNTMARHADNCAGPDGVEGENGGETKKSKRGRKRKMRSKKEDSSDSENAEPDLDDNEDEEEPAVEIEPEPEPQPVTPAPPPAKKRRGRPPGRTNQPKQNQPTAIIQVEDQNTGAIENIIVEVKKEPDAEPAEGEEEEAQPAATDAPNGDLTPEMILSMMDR

Protein sequences, listed by entry. Tags and fused reporters are not part of them.
UniProt Q9H3P2: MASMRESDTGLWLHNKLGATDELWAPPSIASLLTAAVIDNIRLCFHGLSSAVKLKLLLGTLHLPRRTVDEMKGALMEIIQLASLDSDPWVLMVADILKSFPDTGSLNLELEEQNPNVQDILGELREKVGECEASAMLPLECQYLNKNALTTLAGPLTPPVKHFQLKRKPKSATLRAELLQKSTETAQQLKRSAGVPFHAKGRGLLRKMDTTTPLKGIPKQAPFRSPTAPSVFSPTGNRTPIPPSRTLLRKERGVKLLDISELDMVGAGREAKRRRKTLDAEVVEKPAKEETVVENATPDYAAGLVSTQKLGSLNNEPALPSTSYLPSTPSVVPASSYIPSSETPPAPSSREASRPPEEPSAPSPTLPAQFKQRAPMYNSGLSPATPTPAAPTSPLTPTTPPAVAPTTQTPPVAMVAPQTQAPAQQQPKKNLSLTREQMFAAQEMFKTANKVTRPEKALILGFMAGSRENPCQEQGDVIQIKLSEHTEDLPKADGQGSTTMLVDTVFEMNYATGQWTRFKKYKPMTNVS
UniProt P18615: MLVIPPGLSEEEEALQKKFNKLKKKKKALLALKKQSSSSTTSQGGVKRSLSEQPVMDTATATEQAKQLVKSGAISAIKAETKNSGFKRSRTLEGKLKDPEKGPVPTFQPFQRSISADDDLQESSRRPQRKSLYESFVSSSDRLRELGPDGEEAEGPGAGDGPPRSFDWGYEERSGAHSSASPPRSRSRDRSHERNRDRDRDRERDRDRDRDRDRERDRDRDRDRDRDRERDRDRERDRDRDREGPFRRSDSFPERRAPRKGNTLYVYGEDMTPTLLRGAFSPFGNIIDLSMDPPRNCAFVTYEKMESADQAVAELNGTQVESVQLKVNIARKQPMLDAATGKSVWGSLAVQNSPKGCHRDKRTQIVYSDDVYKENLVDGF
UniProt P50750: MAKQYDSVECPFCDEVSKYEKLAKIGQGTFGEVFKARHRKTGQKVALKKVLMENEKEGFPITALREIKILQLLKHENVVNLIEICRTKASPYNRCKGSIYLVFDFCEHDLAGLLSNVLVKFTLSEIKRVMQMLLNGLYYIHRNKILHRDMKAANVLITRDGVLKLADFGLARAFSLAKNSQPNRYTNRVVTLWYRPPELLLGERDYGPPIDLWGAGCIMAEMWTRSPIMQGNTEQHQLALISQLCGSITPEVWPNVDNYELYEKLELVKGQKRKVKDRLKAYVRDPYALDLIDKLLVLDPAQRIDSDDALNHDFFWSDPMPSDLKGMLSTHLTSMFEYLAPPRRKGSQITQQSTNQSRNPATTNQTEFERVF


What was measured:
[1] = molecular target: T1, recombinant his-tagged CTCF (human); experiment: pull-down; his-CTCF held on Ni-NTA agarose beads, incubated with HeLa nuclear extract 1 h at 4°C; 8 washes with RIPA buffer with 150 mM NaCl (or 300 mM NaCl, more stringent panel); Western blot; only the target purified
GST-Nelf-A = GST-Nelf-A (UniProt Q9H3P2); experiment: pull-down; 500 ng GST-Nelf-A or GST-Nelf-E held on glutathione sepharose 4B, 500 ng his-CTCF added in 50 mM Tris pH7.5, 250 mM NaCl, 2 mM EDTA, 0.1% NP-40, 1 h at 4°C; Western blot with CTCF antibodies; both purified
GST-Nelf-E = GST-Nelf-E (UniProt P18615); experiment: as above
[2] = molecular target: FLAG-Nelf-E containing NELF complex (UniProt P18615); experiment: pull-down; 500 ng his-CTCF with 500 ng FLAG-NELF or FLAG-DSIF in 50 mM Tris pH7.5, 250 mM NaCl, 2 mM EDTA, 0.1% NP-40, 1 h at 4°C; captured on anti-FLAG M2 affinity gel, eluted with FLAG peptide; Western blot; both purified

Row | binding [1] | binding (GST-Nelf-A) | binding (GST-Nelf-E) | binding [2] | Molecule
1 | binds | – | – | – | p42 isoform of CDK9 (from UniProt P50750 1-372)
2 | – | binds | binds | binds weakly | recombinant his-tagged CTCF (protein, UniProt P49711 2-727) EGDAVEAIVEESETFIKGKERKTYQRRREGGQEEDACHLPQNQTDGGEVVQDVNSSVQMVMMEQLDPTLLQMKTEVMEGTVAPEAEAAVDDTQIITLQVVNMEEQPINIGELQLVQVPVPVTVPVATTSVEELQGAYENEVSKEGLAESEPMICHTLPLPEGFQVVKVGANGEVETLEQGELPPQEDPSWQKDPDYQPPAKKTKKTKKSKLRYTEEGKDVDVSVYDFEEEQQEGLLSEVNAEKVVGNMKPPKPTKIKKKGVKKTFQCELCSYTCPRRSNLDRHMKSHTDERPHKCHLCGRAFRTVTLLRNHLNTHTGTRPHKCPDCDMAFVTSGELVRHRRYKHTHEKPFKCSMCDYASVEVSKLKRHIRSHTGERPFQCSLCSYASRDTYKLKRHMRTHSGEKPYECYICHARFTQSGTMKMHILQKHTENVAKFHCPHCDTVIARKSDLGVHLRKQHSYIEQGKKCRYCDAVFHERYALIQHQKSHKNEKRFKCDQCDYACRQERHMIMHKRTHTGEKPYACSHCDKTFRQKQLLDMHFKRYHDPNFVPAAFVCSKCGKTFTRRNTMARHADNCAGPDGVEGENGGETKKSKRGRKRKMRSKKEDSSDSENAEPDLDDNEDEEEPAVEIEPEPEPQPVTPAPPPAKKRRGRPPGRTNQPKQNQPTAIIQVEDQNTGAIENIIVEVKKEPDAEPAEGEEEEAQPAATDAPNGDLTPEMILSMMDR

— paper PMC4802788
